# Laboratory results reported in the supplement of paper PMC8728848.
# This is one part of the list.
# Columns and labels:
# Experiment in all cases: glycan array binding signal (z-score within array); higher = stronger binding
# Settings in all cases: glycan notation: IUPAC condensed, linker removed
# [1] = target: Fuc(a1-2)Gal(b1-4)GlcNAc(b1-3)Gal(b1-4)GlcNAc(b1-3)Gal(b1-4)GlcNAc
# Method in brief: (§1)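 Glycan array binding is given as a within-array Z-score, which can be read as non-binding when negative. The arrays, 3228 of them, came from the Consortium for Functional Glycomics database and were retained only where the protein sequence was available. Z-scores were averaged across arrays of the same protein sequence at different concentrations or buffers and across linkers.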
# [2] = target: Fuc(a1-2)Gal(b1-4)GlcNAc(b1-3)GalNAc
# Method in brief: as §1
# [3] = target: Fuc(a1-2)Gal(b1-4)GlcNAc(b1-3)[Fuc(a1-2)Gal(b1-4)GlcNAc(b1-6)]GalNAc
# Method in brief: as §1
# [4] = target: Fuc(a1-2)Gal(b1-4)GlcNAc(b1-3)[Fuc(a1-3)[Gal(b1-4)]GlcNAc(b1-6)]Gal(b1-4)Glc
# Method in brief: as §1
# [5] = target: Fuc(a1-2)Gal(b1-4)GlcNAc(b1-6)GalNAc
# Method in brief: as §1
# [6] = target: Fuc(a1-2)Gal(b1-4)GlcNAc6S
# Method in brief: as §1
# [7] = target: Fuc(a1-2)Gal(b1-4)[Fuc(a1-3)]GlcNAc
# Method in brief: as §1
# [8] = target: Fuc(a1-2)Gal(b1-4)[Fuc(a1-3)]GlcNAc(b1-2)Man(a1-3)[Fuc(a1-2)Gal(b1-4)[Fuc(a1-3)]GlcNAc(b1-2)Man(a1-6)]Man(b1-4)GlcNAc(b1-4)[Fuc(a1-6)]GlcNAc
# Method in brief: as §1
# [9] = target: Fuc(a1-2)Gal(b1-4)[Fuc(a1-3)]GlcNAc(b1-2)[Fuc(a1-2)Gal(b1-4)[Fuc(a1-3)]GlcNAc(b1-4)]Man(a1-3)[Fuc(a1-2)Gal(b1-4)[Fuc(a1-3)]GlcNAc(b1-2)Man(a1-6)]Man(b1-4)GlcNAc(b1-4)GlcNAc
# Method in brief: as §1
# [10] = target: Fuc(a1-2)Gal(b1-4)[Fuc(a1-3)]GlcNAc(b1-3)Gal(b1-4)[Fuc(a1-3)]GlcNAc
# Method in brief: as §1
# [11] = target: Fuc(a1-2)Gal(b1-4)[Fuc(a1-3)]GlcNAc(b1-3)Gal(b1-4)[Fuc(a1-3)]GlcNAc(b1-3)Gal(b1-4)[Fuc(a1-3)]GlcNAc
# Method in brief: as §1
# [12] = target: Fuc(a1-2)Gal(b1-4)[Fuc(a1-3)]GlcNAc(b1-3)GalNAc
# Method in brief: as §1
# [13] = target: Fuc(a1-2)Gal(b1-4)[Fuc(a1-3)]GlcNAc(b1-3)[Neu5Ac(a2-6)Gal(b1-4)GlcNAc(b1-6)]Gal(b1-4)Glc
# Method in brief: as §1
# [14] = target: Fuc(a1-2)Gal3S(b1-4)GlcNAc
# Method in brief: as §1
# [15] = target: Fuc(a1-2)Gal6S(b1-3)GlcNAc
# Method in brief: as §1
# [16] = target: Fuc(a1-2)Gal6S(b1-3)GlcNAc6S
# Method in brief: as §1
# Fuc(a1-2)Gal6S(b1-4)Glc = target: Fuc(a1-2)Gal6S(b1-4)Glc
# Method in brief: as §1
# [17] = target: Fuc(a1-2)Gal6S(b1-4)Glc6S
# Method in brief: as §1
# Fuc(a1-2)[Gal(a1-3)]Gal = target: Fuc(a1-2)[Gal(a1-3)]Gal
# Method in brief: as §1
# [18] = target: Fuc(a1-2)[Gal(a1-3)]Gal(b1-3)GalNAc
# Method in brief: as §1
# [19] = target: Fuc(a1-2)[Gal(a1-3)]Gal(b1-3)GalNAc(b1-3)Gal(a1-4)Gal(b1-4)Glc
# Method in brief: as §1
# [20] = target: Fuc(a1-2)[Gal(a1-3)]Gal(b1-3)GlcNAc
# Method in brief: as §1
# [21] = target: Fuc(a1-2)[Gal(a1-3)]Gal(b1-3)GlcNAc(b1-2)Man(a1-3)[Fuc(a1-2)[Gal(a1-3)]Gal(b1-3)GlcNAc(b1-2)Man(a1-6)]Man(b1-4)GlcNAc(b1-4)GlcNAc
# Method in brief: as §1
# [22] = target: Fuc(a1-2)[Gal(a1-3)]Gal(b1-3)GlcNAc(b1-2)Man(a1-3)[Fuc(a1-2)[Gal(a1-3)]Gal(b1-3)GlcNAc(b1-2)Man(a1-6)]Man(b1-4)GlcNAc(b1-4)[Fuc(a1-6)]GlcNAc
# Method in brief: as §1
# [23] = target: Fuc(a1-2)[Gal(a1-3)]Gal(b1-3)GlcNAc(b1-3)GalNAc
# Method in brief: as §1
# [24] = target: Fuc(a1-2)[Gal(a1-3)]Gal(b1-3)GlcNAc(b1-6)GalNAc
# Method in brief: as §1
# [25] = target: Fuc(a1-2)[Gal(a1-3)]Gal(b1-4)Glc
# Method in brief: as §1
# [26] = target: Fuc(a1-2)[Gal(a1-3)]Gal(b1-4)GlcNAc
# Method in brief: as §1
# [27] = target: Fuc(a1-2)[Gal(a1-3)]Gal(b1-4)GlcNAc(b1-2)Man
# Method in brief: as §1
# [28] = target: Fuc(a1-2)[Gal(a1-3)]Gal(b1-4)GlcNAc(b1-2)Man(a1-3)[Fuc(a1-2)[Gal(a1-3)]Gal(b1-4)GlcNAc(b1-2)Man(a1-6)]Man(b1-4)GlcNAc(b1-4)GlcNAc
# Method in brief: as §1
binder,measurement,setting,value
Clone646PsrP (Streptococcus pneumoniae) (protein) MDHHHHHHHHASENLYFQGAPAINASLNIAKSETKVYTGEGVDSVYRVPIYYKLKVTNDGSKLTFTYTVTYVNPKTNDLGNISSMRPGYSIYNSGTSTQTMLTLGSDLGKPSGVKNYITDKNGRQVLSYNTSTMTTQGSGYTWGNGAQMNGFFAKKGYGLTSSWTVPITGTDTSFTFTPYAARTDRIGINYFNGGGKVVESSTTSQSLSQSKSLSVSAS,glycan array binding signal (z-score),[1],-0.673
same,glycan array binding signal (z-score),[2],0.185
same,glycan array binding signal (z-score),[3],-0.099
same,glycan array binding signal (z-score),[4],-0.916
same,glycan array binding signal (z-score),[5],2.58
same,glycan array binding signal (z-score),[6],0.348
same,glycan array binding signal (z-score),[7],0.085
same,glycan array binding signal (z-score),[8],0.096
same,glycan array binding signal (z-score),[9],0.297
same,glycan array binding signal (z-score),[10],-0.894
same,glycan array binding signal (z-score),[11],-0.461
same,glycan array binding signal (z-score),[12],0.715
same,glycan array binding signal (z-score),[13],-0.41
same,glycan array binding signal (z-score),[14],-0.631
same,glycan array binding signal (z-score),[15],1.58
same,glycan array binding signal (z-score),[16],1.91
same,glycan array binding signal (z-score),Fuc(a1-2)Gal6S(b1-4)Glc,-0.239
same,glycan array binding signal (z-score),[17],-0.095
same,glycan array binding signal (z-score),Fuc(a1-2)[Gal(a1-3)]Gal,-0.314
same,glycan array binding signal (z-score),[18],0.128
same,glycan array binding signal (z-score),[19],1.02
same,glycan array binding signal (z-score),[20],2
same,glycan array binding signal (z-score),[21],-0.845
same,glycan array binding signal (z-score),[22],1.03
same,glycan array binding signal (z-score),[23],-0.402
same,glycan array binding signal (z-score),[24],0.206
same,glycan array binding signal (z-score),[25],0.601
same,glycan array binding signal (z-score),[26],0.518
same,glycan array binding signal (z-score),[27],-0.252
same,glycan array binding signal (z-score),[28],-0.443

# 2 entries from above, with bars between the fields.
binder | measurement | setting | value
Clone646PsrP (Streptococcus pneumoniae) (protein) MDHHHHHHHHASENLYFQGAPAINASLNIAKSETKVYTGEGVDSVYRVPIYYKLKVTNDGSKLTFTYTVTYVNPKTNDLGNISSMRPGYSIYNSGTSTQTMLTLGSDLGKPSGVKNYITDKNGRQVLSYNTSTMTTQGSGYTWGNGAQMNGFFAKKGYGLTSSWTVPITGTDTSFTFTPYAARTDRIGINYFNGGGKVVESSTTSQSLSQSKSLSVSAS | glycan array binding signal (z-score) | [15] | 1.58
same | glycan array binding signal (z-score) | [16] | 1.91
